Consider one substance from article PMC10724271.

Sequences of proteins named here, by UniProt entry; tags and fusion partners are left off.
UniProt Q9H8M2: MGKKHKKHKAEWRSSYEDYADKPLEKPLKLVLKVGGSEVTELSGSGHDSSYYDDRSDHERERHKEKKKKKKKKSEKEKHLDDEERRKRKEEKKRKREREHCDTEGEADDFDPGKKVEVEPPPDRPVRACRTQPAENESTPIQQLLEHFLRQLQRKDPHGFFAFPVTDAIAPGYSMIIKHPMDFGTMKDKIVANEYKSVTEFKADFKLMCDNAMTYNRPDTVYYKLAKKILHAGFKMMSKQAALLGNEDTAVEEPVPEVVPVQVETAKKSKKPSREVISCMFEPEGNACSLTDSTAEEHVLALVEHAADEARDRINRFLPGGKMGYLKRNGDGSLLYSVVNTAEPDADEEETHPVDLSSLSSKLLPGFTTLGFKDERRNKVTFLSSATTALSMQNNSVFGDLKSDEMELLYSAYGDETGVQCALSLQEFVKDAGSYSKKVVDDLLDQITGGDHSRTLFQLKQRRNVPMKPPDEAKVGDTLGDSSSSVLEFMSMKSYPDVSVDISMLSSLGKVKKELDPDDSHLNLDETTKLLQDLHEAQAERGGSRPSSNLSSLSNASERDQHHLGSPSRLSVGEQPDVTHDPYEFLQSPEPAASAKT

This assay addresses T1, CTCF (UniProt P49711).
T1 sequence: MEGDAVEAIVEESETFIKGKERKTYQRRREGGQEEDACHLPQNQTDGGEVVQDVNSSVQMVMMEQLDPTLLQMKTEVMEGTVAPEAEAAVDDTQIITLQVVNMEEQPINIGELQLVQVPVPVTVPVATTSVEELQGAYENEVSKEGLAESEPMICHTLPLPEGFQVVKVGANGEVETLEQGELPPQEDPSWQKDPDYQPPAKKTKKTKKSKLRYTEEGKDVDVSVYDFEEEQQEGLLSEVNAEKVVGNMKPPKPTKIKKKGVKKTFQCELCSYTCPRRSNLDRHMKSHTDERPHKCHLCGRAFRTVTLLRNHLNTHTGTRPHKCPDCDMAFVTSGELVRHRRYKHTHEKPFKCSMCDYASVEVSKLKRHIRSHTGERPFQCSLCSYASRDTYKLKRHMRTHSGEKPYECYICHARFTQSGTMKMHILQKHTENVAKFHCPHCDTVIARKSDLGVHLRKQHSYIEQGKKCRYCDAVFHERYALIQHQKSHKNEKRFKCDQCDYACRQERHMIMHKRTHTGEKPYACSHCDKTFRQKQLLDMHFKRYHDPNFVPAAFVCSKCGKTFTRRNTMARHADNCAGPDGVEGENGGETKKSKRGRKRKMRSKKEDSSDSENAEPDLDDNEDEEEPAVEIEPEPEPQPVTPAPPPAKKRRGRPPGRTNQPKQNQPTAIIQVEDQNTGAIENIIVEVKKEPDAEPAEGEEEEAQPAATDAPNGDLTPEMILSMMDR
As to the kind of experiment: co-IP; immunoprecipitation studies (Supplementary Fig. 7f); cells, bait and conditions not told in the text shown.

These are yes or no findings as the source states them, for the method shown. Binding seen in cells or lysates may run through a third protein. Some entries that bind do so weakly or less than the wild type.

In the case of BRD9 (from UniProt Q9H8M2 1-597), the binding entry is reported as “binds”.
